Measured values: US20210179727A1
No constants are given. Whether binding was seen depends on the method and setting. Some entries that bind do so weakly or less than the wild type.

Chains of the proteins cited; added tags and fusions are not shown. Lines headed by an entry give the natural chain unless they say otherwise; changes in a name come on top.
UniProt P25942: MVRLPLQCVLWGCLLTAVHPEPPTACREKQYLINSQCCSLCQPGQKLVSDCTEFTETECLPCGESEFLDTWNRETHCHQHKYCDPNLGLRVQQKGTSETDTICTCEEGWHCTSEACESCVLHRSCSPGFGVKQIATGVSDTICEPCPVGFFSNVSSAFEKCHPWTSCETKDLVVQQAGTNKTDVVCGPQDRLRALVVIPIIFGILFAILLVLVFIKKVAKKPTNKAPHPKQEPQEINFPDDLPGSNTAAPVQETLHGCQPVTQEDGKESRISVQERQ

Columns and labels:
[1] = molecular target: human CD40 expressed on CHO cells (human) (UniProt P25942); assay: FACS on CHO cells over-expressing human CD40, goat F(ab')2 anti-human IgG-Fc PE, MFI
[2] = molecular target: human CD40-His tag protein (Sino Biological Inc. Cat #10239-H08E) (human) (UniProt P25942); assay: ELISA, plate coated with human CD40-His at 1 ug/ml, anti-human IgG-HRP, A450
[3] = molecular target: human CD40-His tag protein (Sino Biological Inc. Cat #10239-H08E) (human) (UniProt P25942); assay: ELISA, plate coated with human CD40-His, anti-human IgG-HRP detection
[4] = molecular target: human CD40 expressed on CHO cells (human) (UniProt P25942); assay: FACS on CHO cells over-expressing human CD40, chimeric antibodies

Measured: binding

B1: LYV391 (chimeric antibody, 36G7B8 in hG4SP / human kappa) (antibody, human IgG4 S228P, kappa, V domains shown)
VH: QVQLQQPGAELVRPGASVKLSCKASGYIFISYWIHWLKQRPGRGLEWIGRIDPNNGGTKYNEKFRYKASLTVDKSSSTAYMQLSSLTSEDSAVYYCTKGVITTLVAGDYWGQGTTLTVSS
VL: DVVMTQIPLSLPVSIGDQASISCRSSQSLVYSYGNTYLHWFLQKPGQSPKLLIYNVSNRFSGVPDRFSGSGSGTDFTLRISRVEAEDLGVYFCSQGTHVPWTFGGGTKLEIKR
binds: all assays above

B2: LYV377 (chimeric antibody, 13F1A7 in human IgG4SP / human kappa) (antibody, V domains shown)
VH: EVQILETGGGLVKPGGSLRLSCATSGFNFNDSFMNWVRQAPGKGLEWVAQIRNKNYNYATYYTESLEGRVTISRDDSKSRVYLQVSSLRAEDSAVYYCTSYYYDGFADYFDYWGQGVMVTVSS
VL: DIKMTQSPSFLSASVGDSVTFTCKASQNIYIYLNWYQQKFGEAPKLLIYNTNNLQTGIPSRFSGSESGTVFTLTISSLQPEDVATYFCLQHSSRRTFGGGTKLELKR
binds: all assays above

B3: LYV378 (chimeric antibody, 9F12D9 in human IgG4SP / human kappa) (antibody, V domains shown)
VH: EVHLVESGGGLVQPGRSLKLSCAASGFTFTNYGLHWIRQAPTKGLEWVASISPSGGVTYYRDSVKGRFTISRDNGKTTLHLQMDSLRSEDTATYYCALPFLGWGGANWIAHWGQGTLVTVSS
VL: DIQMTQSPASLSASLGETVSIECLASEDISNDLAWYQQKSGKSPQLLIYFVDRLLDGVPSRFSGSGSGTRHSLKISGMQPEDEADYFCQQSYKYPPTFGGGTKLELKR
binds: all assays above

B4: LYV379 (chimeric antibody, 17C5C2 in human IgG4SP / human kappa) (antibody, V domains shown)
VH: EVHILETGGGLVKPGGSLGLSCTTSGFNFNDYFMNWVRQAPGKGLEWVAQIRNGNYDYAAYYAESLEGRVTISRDDSKSSVNLQVSSLRAEDTAIYYCTSYYYDGHFDYFDNWGHGVMVTVSS
VL: DIKVTQSPSFLSASVGDRATINCKASQNLNKYLNWYQQKPGEPPKLLIYNTDNLYTGIPSRFSGSGSVADFTLTISGLQPEDVATYFCMQHNVRRTFGGGTKLELKR
binds: all assays above

B5: LYV376 (chimeric antibody, 19G6D6 in human IgG4SP / human kappa) (antibody, V domains shown)
VH: EVQLQQSGPELVKPGASVKIPCKASGYTFTDYNMDWVKQSHGKSLEWIGDINPNNDISIYNQKFRGKATLTVDKSSSTAYMELRSLTSEDTAVYYCARRFAYWGQGTLVTVSA
VL: EIVLTQSPTTMAASPGEKITITCSASSSISSNYLHWYQQKPGSSPKVLIYRTSNLASGVPVRFSGSGSGTSYSLTIGTMEAEDVATYYCQQGSSIPYTFGGGTKLEIKR
binds: all assays above
